No constants are given. Whether binding was seen depends on the method and setting. Binding can be weak; no strength is given.

Sequences of proteins named here, by UniProt entry; tags and fusion partners are left off. A change or cut given only in a name is not applied to a line headed by its entry.
UniProt Q9LK61: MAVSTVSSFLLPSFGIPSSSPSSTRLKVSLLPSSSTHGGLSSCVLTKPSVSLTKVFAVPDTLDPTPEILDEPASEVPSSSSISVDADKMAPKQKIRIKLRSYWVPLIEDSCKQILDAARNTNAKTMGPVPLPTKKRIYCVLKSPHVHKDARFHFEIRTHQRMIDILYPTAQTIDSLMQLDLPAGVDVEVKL
UniProt Q8W4I6: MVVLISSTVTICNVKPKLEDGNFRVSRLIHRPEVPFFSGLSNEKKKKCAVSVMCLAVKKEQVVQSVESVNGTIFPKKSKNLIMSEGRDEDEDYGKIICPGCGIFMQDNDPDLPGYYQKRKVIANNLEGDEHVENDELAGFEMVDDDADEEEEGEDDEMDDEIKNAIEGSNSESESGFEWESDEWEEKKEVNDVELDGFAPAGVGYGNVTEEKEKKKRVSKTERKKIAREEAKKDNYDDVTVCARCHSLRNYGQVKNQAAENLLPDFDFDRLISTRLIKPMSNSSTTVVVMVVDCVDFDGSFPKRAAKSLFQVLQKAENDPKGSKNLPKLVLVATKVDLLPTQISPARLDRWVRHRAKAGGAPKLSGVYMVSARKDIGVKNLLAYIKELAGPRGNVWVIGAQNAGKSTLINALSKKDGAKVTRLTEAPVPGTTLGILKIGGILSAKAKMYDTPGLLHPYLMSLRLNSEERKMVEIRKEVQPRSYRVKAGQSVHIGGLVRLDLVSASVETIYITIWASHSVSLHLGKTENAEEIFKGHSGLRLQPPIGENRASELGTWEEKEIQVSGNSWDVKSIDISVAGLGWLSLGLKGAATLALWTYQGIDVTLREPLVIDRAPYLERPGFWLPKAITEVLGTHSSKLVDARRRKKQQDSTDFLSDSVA

Experimental findings from PMC11260468 are described below.

This test concerns the target His-uS10c recombinant protein (Arabidopsis) (UniProt Q9LK61). The test can be described thus: pull-down; purified GST-BPG2 and His-uS10c mixed in 1X PBS, 23°C 60 min; captured on Ni-NTA magnetic beads 40 min at 4°C; ten washes (25 mM Tris-HCl pH 7.5, 2 mM EDTA, 100 mM NaCl); immunoblot; both purified. A general note: In western blotting, separated proteins are transferred to a membrane and probed.

For the substance “GST-BPG2 fusion protein (from UniProt Q8W4I6)”, the binding result is “binds”.
